From the supplement of paper PMC8728848
This is one part of the list.

Assays:
Test in all cases: glycan array binding signal (z-score within array); higher = stronger binding
Details in all cases: glycan notation: IUPAC condensed, linker removed
Gal3S6S(b1-4)GlcNAc = biological target: Gal3S6S(b1-4)GlcNAc
Method in brief: (§1)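 The binding signal is a Z-score computed within each array and averaged over linkers. Arrays of the same protein sequence at different concentrations or buffers were also averaged together. Data originate from 3228 arrays in the Consortium for Functional Glycomics database, kept only where the protein sequence was available.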

Gal3S6S(b1-4)GlcNAc6S = biological target: Gal3S6S(b1-4)GlcNAc6S
Method in brief: as §1

Gal4S(b1-4)GlcNAc = biological target: Gal4S(b1-4)GlcNAc
Method in brief: as §1

Gal4S6S(b1-4)GlcNAc = biological target: Gal4S6S(b1-4)GlcNAc
Method in brief: as §1

Gal6P(b1-4)GlcNAc = biological target: Gal6P(b1-4)GlcNAc
Method in brief: as §1

Gal6S(b1-3)GlcNAc = biological target: Gal6S(b1-3)GlcNAc
Method in brief: as §1

Gal6S(b1-3)GlcNAc6S = biological target: Gal6S(b1-3)GlcNAc6S
Method in brief: as §1

Gal6S(b1-4)Glc = biological target: Gal6S(b1-4)Glc
Method in brief: as §1

Gal6S(b1-4)Glc6S = biological target: Gal6S(b1-4)Glc6S
Method in brief: as §1

Gal6S(b1-4)GlcNAc = biological target: Gal6S(b1-4)GlcNAc
Method in brief: as §1

Gal6S(b1-4)GlcNAc6S = biological target: Gal6S(b1-4)GlcNAc6S
Method in brief: as §1

GalNAc(a1-3)Gal = biological target: GalNAc(a1-3)Gal
Method in brief: as §1

GalNAc(a1-3)GalNAc = biological target: GalNAc(a1-3)GalNAc
Method in brief: as §1

[1] = biological target: GalNAc(a1-3)GalNAc(b1-3)Gal(a1-4)Gal(b1-4)Glc
Method in brief: as §1

[2] = biological target: GalNAc(a1-3)GalNAc(b1-3)Gal(a1-4)Gal(b1-4)GlcNAc
Method in brief: as §1

GalNAc(b1-3)Gal = biological target: GalNAc(b1-3)Gal
Method in brief: as §1

[3] = biological target: GalNAc(b1-3)Gal(a1-4)Gal(b1-4)GlcNAc
Method in brief: as §1

[4] = biological target: GalNAc(b1-3)Gal(a1-4)Gal(b1-4)GlcNAc(b1-3)Gal(b1-4)Glc
Method in brief: as §1

[5] = biological target: GalNAc(b1-3)Gal(a1-6)Gal(b1-4)Glc
Method in brief: as §1

GalNAc(b1-3)GalNAc = biological target: GalNAc(b1-3)GalNAc
Method in brief: as §1

GalNAc(b1-3)GlcNAc = biological target: GalNAc(b1-3)GlcNAc
Method in brief: as §1

GalNAc(b1-4)Gal(b1-4)Glc = biological target: GalNAc(b1-4)Gal(b1-4)Glc
Method in brief: as §1

GalNAc(b1-4)GlcNAc = biological target: GalNAc(b1-4)GlcNAc
Method in brief: as §1

[6] = biological target: GalNAc(b1-4)GlcNAc(b1-2)Man
Method in brief: as §1

[7] = biological target: GalNAc(b1-4)GlcNAc(b1-2)Man(a1-3)[GalNAc(b1-4)GlcNAc(b1-2)Man(a1-6)]Man(b1-4)GlcNAc(b1-4)GlcNAc
Method in brief: as §1

[8] = biological target: GalNAc(b1-4)GlcNAc(b1-3)GalNAc(b1-4)GlcNAc
Method in brief: as §1

GalNAc(b1-4)GlcNAc6S = biological target: GalNAc(b1-4)GlcNAc6S
Method in brief: as §1

GalNAc(b1-6)GalNAc = biological target: GalNAc(b1-6)GalNAc
Method in brief: as §1

GalNAc3S(b1-4)GlcNAc = biological target: GalNAc3S(b1-4)GlcNAc
Method in brief: as §1

GalNAc3S(b1-4)GlcNAc3S = biological target: GalNAc3S(b1-4)GlcNAc3S
Method in brief: as §1

[9] = biological target: GalNAc3S(b1-4)[Fuc(a1-3)]GlcNAc
Method in brief: as §1

GalNAc4S6S(b1-4)GlcNAc = biological target: GalNAc4S6S(b1-4)GlcNAc
Method in brief: as §1

GalNAc6S(b1-4)GlcNAc = biological target: GalNAc6S(b1-4)GlcNAc
Method in brief: as §1

Glc(a1-4)Glc = biological target: Glc(a1-4)Glc
Method in brief: as §1

[10] = biological target: Glc(a1-4)Glc(a1-4)Glc(a1-4)Glc
Method in brief: as §1

Glc(a1-6)Glc(a1-6)Glc = biological target: Glc(a1-6)Glc(a1-6)Glc
Method in brief: as §1

[11] = biological target: Glc(a1-6)Glc(a1-6)Glc(a1-6)Glc
Method in brief: as §1

Glc(b1-4)Glc = biological target: Glc(b1-4)Glc
Method in brief: as §1

B1: Gs78B-bfa-542-29-542 (Bacteroides fragilis) (protein)
chain: SEDINRNPLLPTKEDEKMDGVIYGAYLPNLEKSVIPIGTASESTEPVNRYQIGVNLAGDAWAGYMSPRDNKFNGSKNFTNYFMYENWVNYVYSFMVTDVYSPWMQIKRISQDEGTRNDEIYALAQIIKIAALHRTTDMFGPIPYSQVGKGSFKVAYDSQESVYRSFLKELEEAVQTLDDYSNKSKEVLPAFDIVYNGDVNKWMRFANSLMLRLAIRVRFADAGLAKEYAEKAVKHPAGLINSKELAAQMGKGAGLQMKNPLKVINEEYNDTRMGATIYSYLAGYNDARAAVYFVKNNGFKAVRCGIAKSGDAYNGFTRPNVHEDDPLYWMKASEVCFLKAEGALAGFDMGGSAGDFYNAGIRMSFSENGLDNSSAETYLKDSTRKPANYTDTSNGELSANAPSSITIRWENGATEEEKLERIITQKYLAIFPNGQEAWTEWRRTGYPRQIVVAENKTNSAVLIGNGYDLGGVRRLPYPRTEYEQNGENLHNAISQYLGGVDNAATKVWWDKKSK
glycan array binding signal (z-score) (Gal3S6S(b1-4)GlcNAc): -0.768
glycan array binding signal (z-score) (Gal3S6S(b1-4)GlcNAc6S): -0.34
glycan array binding signal (z-score) (Gal4S(b1-4)GlcNAc): -0.815
glycan array binding signal (z-score) (Gal4S6S(b1-4)GlcNAc): -0.811
glycan array binding signal (z-score) (Gal6P(b1-4)GlcNAc): -0.588
glycan array binding signal (z-score) (Gal6S(b1-3)GlcNAc): -0.563
glycan array binding signal (z-score) (Gal6S(b1-3)GlcNAc6S): -0.469
glycan array binding signal (z-score) (Gal6S(b1-4)Glc): 0.825
glycan array binding signal (z-score) (Gal6S(b1-4)Glc6S): 0.798
glycan array binding signal (z-score) (Gal6S(b1-4)GlcNAc): -0.419
glycan array binding signal (z-score) (Gal6S(b1-4)GlcNAc6S): -0.819
glycan array binding signal (z-score) (GalNAc(a1-3)Gal): 0.12
glycan array binding signal (z-score) (GalNAc(a1-3)GalNAc): -0.59
glycan array binding signal (z-score) [1]: 0.06
glycan array binding signal (z-score) [2]: 1
glycan array binding signal (z-score) (GalNAc(b1-3)Gal): -0.448
glycan array binding signal (z-score) [3]: 0.47
glycan array binding signal (z-score) [4]: 1.12
glycan array binding signal (z-score) [5]: -0.669
glycan array binding signal (z-score) (GalNAc(b1-3)GalNAc): -0.725
glycan array binding signal (z-score) (GalNAc(b1-3)GlcNAc): 1.69
glycan array binding signal (z-score) (GalNAc(b1-4)Gal(b1-4)Glc): 1.04
glycan array binding signal (z-score) (GalNAc(b1-4)GlcNAc): 0.601
glycan array binding signal (z-score) [6]: 0.473
glycan array binding signal (z-score) [7]: 2.17
glycan array binding signal (z-score) [8]: 0.468
glycan array binding signal (z-score) (GalNAc(b1-4)GlcNAc6S): 0.909
glycan array binding signal (z-score) (GalNAc(b1-6)GalNAc): -0.828
glycan array binding signal (z-score) (GalNAc3S(b1-4)GlcNAc): -0.564
glycan array binding signal (z-score) (GalNAc3S(b1-4)GlcNAc3S): -0.813
glycan array binding signal (z-score) [9]: 1.23
glycan array binding signal (z-score) (GalNAc4S6S(b1-4)GlcNAc): -0.82
glycan array binding signal (z-score) (GalNAc6S(b1-4)GlcNAc): -0.336
glycan array binding signal (z-score) (Glc(a1-4)Glc): -0.408
glycan array binding signal (z-score) [10]: -0.815
glycan array binding signal (z-score) (Glc(a1-6)Glc(a1-6)Glc): -0.843
glycan array binding signal (z-score) [11]: -0.625
glycan array binding signal (z-score) (Glc(b1-4)Glc): -0.847
